Sequences and labels used below:
B1: full-length human CASP4 (protein, UniProt P49662 1-377)
chain: MAEGNHRKKPLKVLESLGKDFLTGVLDNLVEQNVLNWKEEEKKKYYDAKTEDKVRVMADSMQEKQRMAGQMLLQTFFNIDQISPNKKAHPNMEAGPPESGESTDALKLCPHEEFLRLCKERAEEIYPIKERNNRTRLALIICNTEFDHLPPRNGADFDITGMKELLEGLDYSVDVEENLTARDMESALRAFATRPEHKSSDSTFLVLMSHGILEGICGTVHDEKKPDVLLYDTIFQIFNNRNCLSLKDKPKVIIVQACRGANRGELWVRDSPASLEVASSQSSENLEEDAVYKTHVEKDFIAFCSSTPHNVSWRDSTMGSIFITQLITCFQKYSWCCHLEEVFRKVQQSFETPRAKAQMPTIERLSMTRYFYLFPGN
B2: full-length human caspase 6 (protein, UniProt P55212 1-293)
chain: MSSASGLRRGHPAGGEENMTETDAFYKREMFDPAEKYKMDHRRRGIALIFNHERFFWHLTLPERRGTCADRDNLTRRFSDLGFEVKCFNDLKAEELLLKIHEVSTVSHADADCFVCVFLSHGEGNHIYAYDAKIEIQTLTGLFKGDKCHSLVGKPKIFIIQACRGNQHDVPVIPLDVVDNQTEKLDTNITEVDAASVYTLPAGADFLMCYSVAEGYYSHRETVNGSWYIQDLCEMLGKYGSSLEFTELLTLVNRKVSQRRVDFCKDPSAIGKKQVPCFASMLTKKLHFFPKSN
B3: full-length human caspase 2 (protein, UniProt P42575 1-452)
chain: MAAPSAGSWSTFQHKELMAADRGRRILGVCGMHPHHQETLKKNRVVLAKQLLLSELLEHLLEKDIITLEMRELIQAKVGSFSQNVELLNLLPKRGPQAFDAFCEALRETKQGHLEDMLLTTLSGLQHVLPPLSCDYDLSLPFPVCESCPLYKKLRLSTDTVEHSLDNKDGPVCLQVKPCTPEFYQTHFQLAYRLQSRPRGLALVLSNVHFTGEKELEFRSGGDVDHSTLVTLFKLLGYDVHVLCDQTAQEMQEKLQNFAQLPAHRVTDSCIVALLSHGVEGAIYGVDGKLLQLQEVFQLFDNANCPSLQNKPKMFFIQACRGDETDRGVDQQDGKNHAGSPGCEESDAGKEKLPKMRLPTRSDMICGYACLKGTAAMRNTKRGSWYIEALAQVFSERACDMHVADMLVKVNALIKDREGYAPGTEFHRCKEMSEYCSTLCRHLYLFPGHPPT
B4: full-length human caspase 7 (protein, UniProt P55210 1-303)
chain: MADDQGCIEEQGVEDSANEDSVDAKPDRSSFVPSLFSKKKKNVTMRSIKTTRDRVPTYQYNMNFEKLGKCIIINNKNFDKVTGMGVRNGTDKDAEALFKCFRSLGFDVIVYNDCSCAKMQDLLKKASEEDHTNAACFACILLSHGEENVIYGKDGVTPIKDLTAHFRGDRCKTLLEKPKLFFIQACRGTELDDGIQADSGPINDTDANPRYKIPVEADFLFAYSTVPGYYSWRSPGRGSWFVQALCSILEEHGKDLEIMQILTRVNDRVARHFESQSDDPHFHEKKQIPCVVSMLTKELYFSQ
B5: full-length human caspase 10 (protein, UniProt Q92851 1-521)
chain: MKSQGQHWYSSSDKNCKVSFREKLLIIDSNLGVQDVENLKFLCIGLVPNKKLEKSSSASDVFEHLLAEDLLSEEDPFFLAELLYIIRQKKLLQHLNCTKEEVERLLPTRQRVSLFRNLLYELSEGIDSENLKDMIFLLKDSLPKTEMTSLSFLAFLEKQGKIDEDNLTCLEDLCKTVVPKLLRNIEKYKREKAIQIVTPPVDKEAESYQGEEELVSQTDVKTFLEALPQESWQNKHAGSNGNRATNGAPSLVSRGMQGASANTLNSETSTKRAAVYRMNRNHRGLCVIVNNHSFTSLKDRQGTHKDAEILSHVFQWLGFTVHIHNNVTKVEMEMVLQKQKCNPAHADGDCFVFCILTHGRFGAVYSSDEALIPIREIMSHFTALQCPRLAEKPKLFFIQACQGEEIQPSVSIEADALNPEQAPTSLQDSIPAEADFLLGLATVPGYVSFRHVEEGSWYIQSLCNHLKKLVPRMLKFLEKTMEIRGRKRTVWGAKQISATSLPTAISAQTPRPPMRRWSSVS

Among the data in paper PMC12977621 are binding values, retold here.

No constants are given. Whether binding was seen depends on the method and setting.

In this experiment the target is Shigella OspC2 (Shigella). Nature of the experiment: two-hybrid; yeast MaV103 and MaV203, 96-well format; GAL4BD-OspC effector and GAL4AD-caspase; selection on medium lacking leucine, tryptophan and histidine with 40 mM 3-amino-1,2,4-triazole; growth scored after 7 days at 30°C.
For B1, the binding result is “no binding”.

As for B2, the binding result is given as “no binding”.

Consider B3, for which the binding entry was “no binding”.

B4: the binding entry is on record as “no binding”.

For the molecule B5, the binding result was “no binding”.
